Source: doi:10.1101/2021.07.02.450872
Like-named read-outs stand apart in the source and are kept apart here. These are yes or no findings as the source states them, for the method shown. In cells and extracts the contact can be indirect. Some entries that bind do so weakly or less than the wild type. For some assays here: Tags and fused reporters may be left off the sequences shown.

Chains of the proteins cited; added tags and fusions are not shown.
UniProt P38919: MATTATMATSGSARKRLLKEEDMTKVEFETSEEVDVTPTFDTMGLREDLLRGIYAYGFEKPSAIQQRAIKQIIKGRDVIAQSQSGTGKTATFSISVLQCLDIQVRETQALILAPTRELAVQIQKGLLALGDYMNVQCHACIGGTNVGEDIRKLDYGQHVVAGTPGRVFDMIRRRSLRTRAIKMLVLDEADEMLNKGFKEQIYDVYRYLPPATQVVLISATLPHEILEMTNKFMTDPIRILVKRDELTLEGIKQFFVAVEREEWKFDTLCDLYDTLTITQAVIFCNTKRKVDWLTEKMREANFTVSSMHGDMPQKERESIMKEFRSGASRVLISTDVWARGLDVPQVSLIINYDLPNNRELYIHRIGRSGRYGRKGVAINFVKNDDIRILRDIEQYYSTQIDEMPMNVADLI
UniProt Q9HAU5: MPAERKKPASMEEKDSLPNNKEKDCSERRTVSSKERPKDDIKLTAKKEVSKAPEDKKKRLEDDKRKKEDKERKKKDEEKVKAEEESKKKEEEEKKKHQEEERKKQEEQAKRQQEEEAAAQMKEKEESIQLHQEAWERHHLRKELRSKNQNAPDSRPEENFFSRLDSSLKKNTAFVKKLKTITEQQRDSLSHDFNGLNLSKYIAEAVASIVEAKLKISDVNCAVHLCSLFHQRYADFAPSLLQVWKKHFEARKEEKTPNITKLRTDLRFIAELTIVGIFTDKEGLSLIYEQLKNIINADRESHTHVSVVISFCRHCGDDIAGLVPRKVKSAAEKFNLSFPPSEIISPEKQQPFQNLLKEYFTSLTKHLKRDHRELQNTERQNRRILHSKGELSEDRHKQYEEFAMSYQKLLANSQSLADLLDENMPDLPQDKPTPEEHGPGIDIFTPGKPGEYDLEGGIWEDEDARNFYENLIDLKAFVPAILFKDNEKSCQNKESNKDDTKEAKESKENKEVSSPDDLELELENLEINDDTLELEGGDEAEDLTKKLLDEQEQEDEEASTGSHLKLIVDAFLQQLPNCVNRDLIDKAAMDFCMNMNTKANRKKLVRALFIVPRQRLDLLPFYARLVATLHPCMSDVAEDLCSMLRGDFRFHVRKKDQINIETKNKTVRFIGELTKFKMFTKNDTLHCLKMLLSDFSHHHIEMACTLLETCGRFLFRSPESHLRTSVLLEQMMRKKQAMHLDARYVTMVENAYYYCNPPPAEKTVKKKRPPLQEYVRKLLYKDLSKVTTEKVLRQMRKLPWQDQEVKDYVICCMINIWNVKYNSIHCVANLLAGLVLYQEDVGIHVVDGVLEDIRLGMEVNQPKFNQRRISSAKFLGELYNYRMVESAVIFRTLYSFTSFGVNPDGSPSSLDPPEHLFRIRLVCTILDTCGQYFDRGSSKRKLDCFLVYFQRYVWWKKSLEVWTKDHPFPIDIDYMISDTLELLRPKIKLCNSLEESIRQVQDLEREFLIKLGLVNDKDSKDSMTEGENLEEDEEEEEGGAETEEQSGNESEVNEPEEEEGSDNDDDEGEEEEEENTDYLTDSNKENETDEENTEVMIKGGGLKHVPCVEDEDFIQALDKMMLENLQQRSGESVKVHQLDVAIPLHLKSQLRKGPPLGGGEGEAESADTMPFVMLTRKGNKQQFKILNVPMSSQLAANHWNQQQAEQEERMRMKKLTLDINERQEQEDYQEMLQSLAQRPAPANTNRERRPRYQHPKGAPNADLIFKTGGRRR
UniProt P61326: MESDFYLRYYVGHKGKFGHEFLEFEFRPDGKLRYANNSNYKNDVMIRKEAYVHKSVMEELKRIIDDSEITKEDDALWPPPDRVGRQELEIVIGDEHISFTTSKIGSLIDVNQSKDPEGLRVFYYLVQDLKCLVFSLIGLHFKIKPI
UniProt O15234: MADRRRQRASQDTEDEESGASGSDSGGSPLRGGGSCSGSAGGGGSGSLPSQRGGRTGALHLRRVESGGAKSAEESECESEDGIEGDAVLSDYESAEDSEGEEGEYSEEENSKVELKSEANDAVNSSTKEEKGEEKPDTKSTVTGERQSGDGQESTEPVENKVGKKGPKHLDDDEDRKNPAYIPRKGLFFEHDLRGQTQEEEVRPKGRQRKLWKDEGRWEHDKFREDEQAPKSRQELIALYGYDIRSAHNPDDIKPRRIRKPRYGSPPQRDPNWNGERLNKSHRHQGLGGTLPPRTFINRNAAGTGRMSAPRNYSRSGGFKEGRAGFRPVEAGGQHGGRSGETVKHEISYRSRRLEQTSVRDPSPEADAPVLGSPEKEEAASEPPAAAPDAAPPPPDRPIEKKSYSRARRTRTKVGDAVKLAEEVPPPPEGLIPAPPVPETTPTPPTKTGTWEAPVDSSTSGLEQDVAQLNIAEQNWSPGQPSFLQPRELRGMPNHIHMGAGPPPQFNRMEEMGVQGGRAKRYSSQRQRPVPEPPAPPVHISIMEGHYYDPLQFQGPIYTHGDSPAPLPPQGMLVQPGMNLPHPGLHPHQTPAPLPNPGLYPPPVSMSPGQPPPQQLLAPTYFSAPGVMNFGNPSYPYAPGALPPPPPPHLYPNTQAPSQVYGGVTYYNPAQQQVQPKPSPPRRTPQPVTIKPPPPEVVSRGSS
UniProt P15170: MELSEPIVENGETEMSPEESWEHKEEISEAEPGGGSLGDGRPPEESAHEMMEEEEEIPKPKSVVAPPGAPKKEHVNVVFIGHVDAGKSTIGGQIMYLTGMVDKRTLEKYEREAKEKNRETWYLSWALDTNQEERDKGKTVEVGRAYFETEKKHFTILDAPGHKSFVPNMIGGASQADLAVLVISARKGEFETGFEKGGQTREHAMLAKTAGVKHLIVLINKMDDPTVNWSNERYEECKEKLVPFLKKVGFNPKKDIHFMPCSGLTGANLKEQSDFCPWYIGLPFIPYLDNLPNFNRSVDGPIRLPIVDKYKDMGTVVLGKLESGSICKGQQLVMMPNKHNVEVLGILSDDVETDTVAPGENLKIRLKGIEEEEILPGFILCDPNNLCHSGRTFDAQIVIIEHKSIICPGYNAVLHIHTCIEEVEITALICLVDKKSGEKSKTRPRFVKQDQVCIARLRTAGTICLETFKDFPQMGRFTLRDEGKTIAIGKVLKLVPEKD

Tests used:
Test in all cases: co-IP
[1] = target: EIF4A3 (endogenous, HCT116) (human (endogenous in HCT116)) (UniProt P38919)
[2] = target: T1, FLAG-tagged human UPF3A (human) (UniProt Q9H1J1)
T1 sequence: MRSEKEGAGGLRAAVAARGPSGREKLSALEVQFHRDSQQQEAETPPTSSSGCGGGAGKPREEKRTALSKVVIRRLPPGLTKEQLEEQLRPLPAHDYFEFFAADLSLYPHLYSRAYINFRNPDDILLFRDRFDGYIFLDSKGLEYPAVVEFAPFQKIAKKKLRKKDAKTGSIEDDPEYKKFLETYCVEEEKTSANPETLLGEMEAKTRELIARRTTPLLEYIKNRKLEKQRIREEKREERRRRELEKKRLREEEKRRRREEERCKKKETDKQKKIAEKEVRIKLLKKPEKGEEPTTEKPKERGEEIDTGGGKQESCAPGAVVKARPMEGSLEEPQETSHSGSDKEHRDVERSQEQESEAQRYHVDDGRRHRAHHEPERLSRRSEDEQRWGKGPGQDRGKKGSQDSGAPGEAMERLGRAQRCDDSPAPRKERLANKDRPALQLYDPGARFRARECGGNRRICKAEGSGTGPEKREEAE

[3] = target: T2, FLAG-tagged human UPF3B (human) (UniProt Q9BZI7)
T2 sequence: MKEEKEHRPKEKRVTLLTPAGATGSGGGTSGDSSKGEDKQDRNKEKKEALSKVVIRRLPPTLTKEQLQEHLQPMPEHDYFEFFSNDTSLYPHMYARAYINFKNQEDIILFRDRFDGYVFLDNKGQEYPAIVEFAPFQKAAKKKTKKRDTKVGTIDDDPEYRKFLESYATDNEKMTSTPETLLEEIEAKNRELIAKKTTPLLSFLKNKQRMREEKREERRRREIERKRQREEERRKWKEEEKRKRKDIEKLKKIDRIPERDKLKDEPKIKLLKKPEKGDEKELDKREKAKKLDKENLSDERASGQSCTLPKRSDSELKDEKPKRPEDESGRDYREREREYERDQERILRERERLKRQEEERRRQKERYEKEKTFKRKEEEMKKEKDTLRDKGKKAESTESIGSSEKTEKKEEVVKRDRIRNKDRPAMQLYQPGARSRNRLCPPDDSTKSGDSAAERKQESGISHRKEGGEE

[4] = target: endogenously MYC-tagged UPF2 (human (endogenous in HCT116)) (UniProt Q9HAU5)
[5] = target: endogenously FLAG-tagged MAGOH (human (endogenous in HCT116)) (UniProt P61326)
[6] = target: T3, endogenously FLAG-tagged UPF1 (human (endogenous in HCT116)) (UniProt Q92900)
T3 sequence: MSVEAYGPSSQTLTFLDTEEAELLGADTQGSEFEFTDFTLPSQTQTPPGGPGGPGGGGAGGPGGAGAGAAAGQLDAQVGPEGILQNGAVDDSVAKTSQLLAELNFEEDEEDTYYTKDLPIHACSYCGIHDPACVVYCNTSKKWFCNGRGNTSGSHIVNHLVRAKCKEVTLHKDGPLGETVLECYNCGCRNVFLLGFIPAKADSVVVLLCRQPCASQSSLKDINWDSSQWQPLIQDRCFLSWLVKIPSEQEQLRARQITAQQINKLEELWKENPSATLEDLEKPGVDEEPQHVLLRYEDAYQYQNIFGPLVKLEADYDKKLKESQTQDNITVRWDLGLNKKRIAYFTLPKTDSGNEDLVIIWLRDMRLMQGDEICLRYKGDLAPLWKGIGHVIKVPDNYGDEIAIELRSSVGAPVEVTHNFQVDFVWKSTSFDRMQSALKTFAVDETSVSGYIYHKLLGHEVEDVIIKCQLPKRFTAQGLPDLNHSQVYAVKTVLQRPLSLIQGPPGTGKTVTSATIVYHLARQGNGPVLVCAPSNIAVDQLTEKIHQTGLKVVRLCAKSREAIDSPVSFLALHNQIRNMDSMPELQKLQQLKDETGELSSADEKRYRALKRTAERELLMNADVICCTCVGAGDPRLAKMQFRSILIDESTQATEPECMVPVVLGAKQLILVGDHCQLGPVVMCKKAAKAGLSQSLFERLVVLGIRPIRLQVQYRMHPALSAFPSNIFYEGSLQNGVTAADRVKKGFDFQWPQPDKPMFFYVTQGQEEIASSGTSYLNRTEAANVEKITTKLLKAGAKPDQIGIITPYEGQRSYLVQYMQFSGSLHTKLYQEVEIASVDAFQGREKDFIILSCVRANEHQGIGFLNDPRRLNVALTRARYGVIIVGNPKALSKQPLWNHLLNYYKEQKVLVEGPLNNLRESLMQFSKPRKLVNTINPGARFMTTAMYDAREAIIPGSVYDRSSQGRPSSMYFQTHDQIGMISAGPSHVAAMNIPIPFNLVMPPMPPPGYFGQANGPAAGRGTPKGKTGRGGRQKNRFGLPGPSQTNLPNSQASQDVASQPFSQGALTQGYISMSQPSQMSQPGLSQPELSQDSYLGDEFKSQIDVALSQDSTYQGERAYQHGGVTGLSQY

[7] = target: endogenously MYC-tagged UPF2 (human (endogenous in HCT116)) (UniProt Q9HAU5); remark: listed apart in the source
[8] = target: EIF4A3 (endogenous, HCT116) (human (endogenous in HCT116)) (UniProt P38919); remark: listed apart in the source
[9] = target: CASC3 (endogenous, HCT116) (human (endogenous in HCT116)) (UniProt O15234)
[10] = target: endogenously FLAG-tagged MAGOH (human (endogenous in HCT116)) (UniProt P61326); remark: listed apart in the source
[11] = target: EIF4A3 (endogenous, HeLa) (human (endogenous in HeLa)) (UniProt P38919)

With “endogenously FLAG-tagged CASC3 (from UniProt O15234 1-703)” as the molecule, how does the binding [1] read?
Its binding is “binds”.

Which binding [2] does the source give for “eRF3 (GSPT1) (from UniProt P15170 1-499)” here?
Its binding is “no binding”.

And the binding [3]?
Its binding is “no binding”.

With “CASC3 (endogenous, HCT116) (from UniProt O15234 1-703)” as the molecule, how does the binding [1] read?
The binding was “binds”.

And the binding [4]?
The binding was “binds”.

For “UPF2 (endogenous, HCT116 3DKO cells) (from UniProt Q9HAU5 1-1272)”, which binding [2] is on record?
Its binding is “binds”.

What about the binding [3] of the same molecule?
The binding was “binds”.

“endogenously MYC-tagged UPF2 (from UniProt Q9HAU5 1-1272)” was tested. Which binding [5] did it give?
Its binding is “binds”.

B1: UPF3B (endogenous, HCT116) (protein, UniProt Q9BZI7 1-483)
chain: MKEEKEHRPKEKRVTLLTPAGATGSGGGTSGDSSKGEDKQDRNKEKKEALSKVVIRRLPPTLTKEQLQEHLQPMPEHDYFEFFSNDTSLYPHMYARAYINFKNQEDIILFRDRFDGYVFLDNKGQEYPAIVEFAPFQKAAKKKTKKRDTKVGTIDDDPEYRKFLESYATDNEKMTSTPETLLEEIEAKNRELIAKKTTPLLSFLKNKQRMREEKREERRRREIERKRQREEERRKWKEEEKRKRKDIEKLKKIDRIPERDKLKDEPKIKVHRFLLQAVNQKNLLKKPEKGDEKELDKREKAKKLDKENLSDERASGQSCTLPKRSDSELKDEKPKRPEDESGRDYREREREYERDQERILRERERLKRQEEERRRQKERYEKEKTFKRKEEEMKKEKDTLRDKGKKAESTESIGSSEKTEKKEEVVKRDRIRNKDRPAMQLYQPGARSRNRLCPPDDSTKSGDSAAERKQESGISHRKEGGEE
Which results are given for B1?
binding [6]: binds; binding [7]: binds

B2: UPF3A (endogenous, HCT116) (protein, UniProt Q9H1J1 1-476)
chain: T1 sequence
Which binding [8] does the source give for B2 here?
The binding was “binds”.

What about the binding [9] of the same molecule?
Its binding is “binds”.

What about the binding [10] of the same molecule?
Its binding is “binds”.

What about the binding [6] of the same molecule?
Its binding is “binds”.

What about the binding [7] of the same molecule?
Its binding is “binds”.

B3: UPF3A (endogenous, HeLa) (protein, UniProt Q9H1J1 1-476)
chain: T1 sequence
Which binding [11] does the source give for B3 here?
Its binding is “binds”.

B4: FLAG-tagged human UPF3A (protein, UniProt Q9H1J1 1-476)
chain: T1 sequence
Which binding [8] does the source give for B4 here?
Its binding is “binds”.
